Assay results published in paper PMC12718634.
These are yes or no findings as the source states them, for the method shown. Binding seen in cells or lysates may run through a third protein. A yes stands for co-enrichment or nearness to the bait. Other partners may have been found.

Sequences of proteins named here, by UniProt entry; tags and fusion partners are left off.
UniProt P49023: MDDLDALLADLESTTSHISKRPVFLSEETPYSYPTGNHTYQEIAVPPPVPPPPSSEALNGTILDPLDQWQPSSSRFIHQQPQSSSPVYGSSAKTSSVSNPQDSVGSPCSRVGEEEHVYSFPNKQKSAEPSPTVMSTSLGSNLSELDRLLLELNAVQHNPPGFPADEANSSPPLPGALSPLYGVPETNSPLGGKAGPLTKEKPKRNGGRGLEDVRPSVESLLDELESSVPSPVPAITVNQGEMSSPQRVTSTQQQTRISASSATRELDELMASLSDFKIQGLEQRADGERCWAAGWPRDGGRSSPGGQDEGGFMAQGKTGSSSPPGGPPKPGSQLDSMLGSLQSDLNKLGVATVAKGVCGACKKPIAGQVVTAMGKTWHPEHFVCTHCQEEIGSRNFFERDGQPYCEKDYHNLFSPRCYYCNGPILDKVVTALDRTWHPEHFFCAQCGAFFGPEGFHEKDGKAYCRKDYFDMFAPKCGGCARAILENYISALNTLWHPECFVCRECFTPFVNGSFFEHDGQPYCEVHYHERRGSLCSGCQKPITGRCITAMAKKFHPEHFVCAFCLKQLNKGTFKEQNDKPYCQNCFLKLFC

Target: GFP-BirA*-Paxillin (UniProt P49023)
Assay: proximity labelling; Bio-ID: GFP-BirA*-Paxillin as bait, stably expressed in B16-F1 control and Cyri-b KO cells on laminin; biotin or DMSO for 16 h; biotinylated proteins captured on NeutrAvidin agarose, on-bead digestion, mass spectrometry (label-free quantification)

B1: zyxin (protein, UniProt Q62523 1-564)
chain: MAAPRPPPAISVSVSAPAFYAPQKKFAPVVAPKPKVNPFRPGDSEPPVAAGAQRAQMGRVGEIPPPPPEDFPLPPPPLIGEGDDSEGALGGAFPPPPPPMIEEPFPPAPLEEDIFPSPPPPLEEEGGPEAPTQLPPQPREKVCSIDLEIDSLSSLLDDMTKNDPFKARVSSGYVPPPVATPFVPKPSTKPAPGGTAPLPPWKTPSSSQPPPQPQAKPQVQLHVQPQAKPHVQPQPVSSANTQPRGPLSQAPTPAPKFAPVAPKFTPVVSKFSPGAPSGPGPQPNQKMVPPDAPSSVSTGSPQPPSFTYAQQKEKPLVQEKQHPQPPPAQNQNQVRSPGGPGPLTLKEVEELEQLTQQLMQDMEHPQRQSVAVNESCGKCNQPLARAQPAVRALGQLFHITCFTCHQCQQQLQGQQFYSLEGAPYCEGCYTDTLEKCNTCGQPITDRMLRATGKAYHPQCFTCVVCACPLEGTSFIVDQANQPHCVPDYHKQYAPRCSVCSEPIMPEPGRDETVRVVALDKNFHMKCYKCEDCGKPLSIEADDNGCFPLDGHVLCRKCHSARAQT
With B1 the binding was “binds”.
